These results are taken from US20130171170A1.

By UniProt entry, the sequences of proteins in these tests, tags left out. Where a name states a change or a piece, a line headed by the entry shows the natural chain unless it says otherwise.
UniProt P20273: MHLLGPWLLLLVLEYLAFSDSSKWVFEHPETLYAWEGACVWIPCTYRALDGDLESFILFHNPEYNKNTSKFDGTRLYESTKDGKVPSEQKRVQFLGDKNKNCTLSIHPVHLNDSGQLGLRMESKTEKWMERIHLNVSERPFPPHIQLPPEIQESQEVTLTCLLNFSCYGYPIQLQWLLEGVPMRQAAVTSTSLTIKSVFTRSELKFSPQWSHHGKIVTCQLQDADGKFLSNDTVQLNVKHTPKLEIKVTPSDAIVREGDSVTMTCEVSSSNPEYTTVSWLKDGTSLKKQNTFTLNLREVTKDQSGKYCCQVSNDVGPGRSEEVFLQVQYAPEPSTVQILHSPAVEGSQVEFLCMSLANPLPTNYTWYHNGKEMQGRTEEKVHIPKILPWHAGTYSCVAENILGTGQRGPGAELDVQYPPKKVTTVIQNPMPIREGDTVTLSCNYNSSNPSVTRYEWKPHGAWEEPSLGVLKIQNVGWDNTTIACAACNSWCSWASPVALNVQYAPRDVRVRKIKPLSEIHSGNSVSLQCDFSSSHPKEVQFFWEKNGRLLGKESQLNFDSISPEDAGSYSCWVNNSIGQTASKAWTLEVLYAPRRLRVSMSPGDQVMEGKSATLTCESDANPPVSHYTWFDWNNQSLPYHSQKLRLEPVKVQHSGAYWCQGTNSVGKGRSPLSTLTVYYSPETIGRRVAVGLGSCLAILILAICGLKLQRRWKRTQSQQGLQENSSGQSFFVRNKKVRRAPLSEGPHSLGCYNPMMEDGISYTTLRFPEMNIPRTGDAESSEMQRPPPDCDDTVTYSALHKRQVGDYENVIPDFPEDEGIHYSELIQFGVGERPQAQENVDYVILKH

In this assay the target is human CD22 (form in the assay not stated) (human) (UniProt P20273). Description: cell-based (FACS) and plate (ELISA) screening assays. For orientation: ELISA stands for enzyme-linked immunosorbent assay.

Results are given in words; binding and its absence hold for the method and conditions named. Some entries that bind do so weakly or less than the wild type.

B1: murine anti-human CD22 10F4.4.1 monoclonal antibody (antibody, V domains shown)
VH: QVQLQQSGPELVKPGASVKISCKASGYEFSRSWMNWVKQRPGQGREWIGRIYPGDGDTNYSGKFKGKATLTADKSSSTAYMQLSSLTSVDSAVYFCARDGSSWDWYFDVWGAGTTVTVSS
VL: DILMTQTPLSLPVSLGDQASISCRSSQSIVHSNGNTFLEWYLQKPGQSPKLLIYKVSNRFSGVPDRFSGSGSGTDFTLKISRVEAEDLGVYYCFQGSQFPYTFGGGTKVEIK
Regarding B1, the binding entry is on record as “binds”.
